In paper PMC4513098, “Ordered Regions of Channel Nucleoporins Nup62, Nup54, and Nup58 Form Dynamic Complexes in Solution*” (The Journal of Biological Chemistry, 2015):
These are yes or no findings as the source states them, for the method shown. For some of these results: Binding seen in cells or lysates may run through a third protein. Some entries that bind do so weakly or less than the wild type. For some of these results: Where a sequence is shown, tags or fusion partners need not be part of it.

Sequences of proteins named here, by UniProt entry; tags and fusion partners are left off. A change or cut given only in a name is not applied to a line headed by its entry. A line that says so, or that is headed by a name, gives the form on record, which may keep a tag or linker. Residues count along the entry.
UniProt P70581: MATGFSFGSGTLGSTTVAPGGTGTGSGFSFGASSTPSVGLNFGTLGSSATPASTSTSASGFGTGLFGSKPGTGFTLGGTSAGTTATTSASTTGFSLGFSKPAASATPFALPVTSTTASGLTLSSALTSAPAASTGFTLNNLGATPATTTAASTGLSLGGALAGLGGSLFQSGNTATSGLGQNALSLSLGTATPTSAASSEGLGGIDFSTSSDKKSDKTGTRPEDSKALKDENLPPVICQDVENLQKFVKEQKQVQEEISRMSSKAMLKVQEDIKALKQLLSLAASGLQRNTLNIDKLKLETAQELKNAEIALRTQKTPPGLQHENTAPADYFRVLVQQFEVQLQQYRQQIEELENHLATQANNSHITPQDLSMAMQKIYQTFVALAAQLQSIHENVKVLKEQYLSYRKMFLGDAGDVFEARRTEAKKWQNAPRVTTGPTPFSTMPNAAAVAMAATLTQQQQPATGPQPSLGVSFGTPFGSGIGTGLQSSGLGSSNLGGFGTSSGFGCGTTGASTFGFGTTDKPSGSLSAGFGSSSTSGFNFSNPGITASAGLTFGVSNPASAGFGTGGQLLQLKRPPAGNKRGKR
His6-tagged Nup58, full-length ordered region (239–415): residues 239-415 of P70581

T1: MBP-Nup62(322–525) from Rattus norvegicus (Rattus norvegicus) (UniProt P17955)
T1 sequence: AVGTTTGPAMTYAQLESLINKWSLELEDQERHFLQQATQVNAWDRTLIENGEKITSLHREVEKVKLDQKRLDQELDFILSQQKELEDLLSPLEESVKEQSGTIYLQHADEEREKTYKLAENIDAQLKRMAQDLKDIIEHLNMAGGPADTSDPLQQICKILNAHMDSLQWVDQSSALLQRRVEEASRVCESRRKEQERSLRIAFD

T2: Nup54(346–510), entire ordered region of Nup54 from Rattus norvegicus (Rattus norvegicus) (UniProt P70582)
T2 sequence: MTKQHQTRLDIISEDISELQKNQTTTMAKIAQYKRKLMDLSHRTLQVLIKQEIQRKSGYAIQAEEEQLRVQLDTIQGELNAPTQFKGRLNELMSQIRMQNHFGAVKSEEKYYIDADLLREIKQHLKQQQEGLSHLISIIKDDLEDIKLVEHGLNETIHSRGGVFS


Key:
[1] = biological target: Nup58(239–415), entire ordered region of Nup58 from Rattus norvegicus, His6 tag cleaved (Rattus norvegicus) (UniProt P70581); test: SEC-MALS; triple complex at 2 mg/ml and 5 mg/ml; Superdex200 10/300 GL with MALS and refractive index detectors; 4 °C; both purified
[2] = biological target: Nup58(239–415), entire ordered region of Nup58 from Rattus norvegicus, His6 tag cleaved (Rattus norvegicus) (UniProt P70581); test: SEC; purified triple complex at increasing concentrations on Superdex200 10/300 GL; 10 mM Tris-Cl pH 8.0, 150 mM NaCl, 1 mM DTT (buffer A); 4 °C; both purified
[3] = biological target: His6-tagged Nup58, full-length ordered region (239–415) (Rattus norvegicus) (UniProt P70581); test: pull-down; deletion constructs of the three channel nups co-expressed; complexes purified by affinity pulldown via the His6 tag of Nup58; eluates analysed by SDS-PAGE
[4] = biological target: Nup58(239–415), entire ordered region of Nup58 from Rattus norvegicus, His6 tag cleaved (Rattus norvegicus) (UniProt P70581); test: SEC; competition: preassembled triple complex (1.5 mg/ml) incubated with Nup54 (453–494) wild type or H469F/Q473L (0.6 mg/ml), then size-exclusion chromatography and SDS-PAGE of column fractions; both purified
[5] = biological target: Nup58(239–415), entire ordered region of Nup58 from Rattus norvegicus, His6 tag cleaved (Rattus norvegicus) (UniProt P70581); test: native gel or EMSA; fractions across the SEC peak of the triple complex run on discontinuous native PAGE (Tris-glycine pH 8.0, 20 V, 4 °C, 14 h); bands cut out, eluted and analysed by SDS-PAGE with silver staining; both purified
[6] = biological target: T1, MBP-Nup62(322–525) from Rattus norvegicus (Rattus norvegicus); test: matrix-assisted depletion assay; MBP-Nup62·Nup54·Nup58 complex held on amylose resin in buffer A, incubated at 4 °C with increasing amounts of wild-type Nup54 (453–494); Nup58 released into the supernatant read by absorbance at 280 nm; both purified
[7] = biological target: Nup58(239–415), entire ordered region of Nup58 from Rattus norvegicus, His6 tag cleaved (Rattus norvegicus) (UniProt P70581); test: as above
[8] = biological target: T2, Nup54(346–510), entire ordered region of Nup54 from Rattus norvegicus (Rattus norvegicus); test: SEC-MALS; triple complex at 2 mg/ml and 5 mg/ml; Superdex200 10/300 GL with MALS and refractive index detectors; 4 °C; both purified
[9] = biological target: T2, Nup54(346–510), entire ordered region of Nup54 from Rattus norvegicus (Rattus norvegicus); test: SEC; purified triple complex at increasing concentrations on Superdex200 10/300 GL; 10 mM Tris-Cl pH 8.0, 150 mM NaCl, 1 mM DTT (buffer A); 4 °C; both purified
[10] = biological target: T2, Nup54(346–510), entire ordered region of Nup54 from Rattus norvegicus (Rattus norvegicus); test: SEC; triple complex (5 mg/ml) on size-exclusion chromatography in the presence of 65 mM n-octyl-β-D-glucopyranoside, SDS-PAGE of column fractions; both purified
[11] = biological target: T2, Nup54(346–510), entire ordered region of Nup54 from Rattus norvegicus (Rattus norvegicus); test: pull-down; deletion constructs of the three channel nups co-expressed; complexes purified by affinity pulldown via the His6 tag of Nup58; eluates analysed by SDS-PAGE
[12] = biological target: T2, Nup54(346–510), entire ordered region of Nup54 from Rattus norvegicus (Rattus norvegicus); test: native gel or EMSA; fractions across the SEC peak of the triple complex run on discontinuous native PAGE (Tris-glycine pH 8.0, 20 V, 4 °C, 14 h); bands cut out, eluted and analysed by SDS-PAGE with silver staining; both purified

| Binder | binding [1] | binding [2] | binding [3] | binding [4] | binding [5] | binding [6] | binding [7] | binding [8] | binding [9] | binding [10] | binding [11] | binding [12] |
| --- | --- | --- | --- | --- | --- | --- | --- | --- | --- | --- | --- | --- |
| Nup54(346–510), entire ordered region of Nup54 from Rattus norvegicus (domain or fragment, UniProt P70582 346-510) MTKQHQTRLDIISEDISELQKNQTTTMAKIAQYKRKLMDLSHRTLQVLIKQEIQRKSGYAIQAEEEQLRVQLDTIQGELNAPTQFKGRLNELMSQIRMQNHFGAVKSEEKYYIDADLLREIKQHLKQQQEGLSHLISIIKDDLEDIKLVEHGLNETIHSRGGVFS | binds | binds | binds | binds | binds | binds | binds | – | – | – | – | – |
| Nup62(322–525), entire ordered region of Nup62 from Rattus norvegicus (domain or fragment, UniProt P17955 322-525) AVGTTTGPAMTYAQLESLINKWSLELEDQERHFLQQATQVNAWDRTLIENGEKITSLHREVEKVKLDQKRLDQELDFILSQQKELEDLLSPLEESVKEQSGTIYLQHADEEREKTYKLAENIDAQLKRMAQDLKDIIEHLNMAGGPADTSDPLQQICKILNAHMDSLQWVDQSSALLQRRVEEASRVCESRRKEQERSLRIAFD | – | – | – | – | – | – | – | binds | binds | binds | binds | binds |
| EEKYYIDADLLREIKQFLKQLQEGLSHLISIIKDDLEDIKLV (domain or fragment, UniProt P70582 453-494) [Nup54 (453–494) mutant H469F/Q473L] | – | – | – | no binding (tested: 0.6 mg/ml) | – | – | – | – | – | – | – | – |
